B1: il2ra_site1_1z92_sap_18_mot_HHH_b2_06954_000000142_0001_1_20_H_._HHH_b1_01220_0001_0000300033_0000001_1_0001_af2pred_0001_af2pred_1 (protein)
chain: SSSSEESLKKNAERLVEDLVRLAGLSEEQEKELEELAKELVERGVDPQEIARILEKLALELSSSS
B2: il2ra_site2_3nfp_sap_10_mot_HHH_b2_05976_000000001_0001_22_38_H_._HHH_b2_00671_af2_0001_0000800043_0000001_0_0001 (protein)
chain: SSSSDKELEIMQLAMRAHELAKEGDPEEARELLEEALRLAEEAGNEWQQRYVRARLLLLNSSSSS
B3: il2ra_site2_3nfp_normal_mot_HHH_b1_03236_af2_000000201_0001_37_52_H_._HHH_b2_02667_af2_0001_0000400023_0000001_0 (protein)
chain: SSSSDEEEVEEVKEKLERLLKEGDEEELEKLLKRAADLAYRLNDFELFALISEILLELIRGSSSS
B4: il2ra_site1_2b5i_normal_mot_22370d59370c406a0c205a431f537cfa_0001_af2_000000027_0001_1_31_H_._HHH_b1_03515_af2_0001_0000200012_0000001_0 (protein)
chain: SSSDDNELARRATEIVWRLRFEYNLSREQARALERLAAELLDRGVDEEEIEERLEELAKELGSSS
B5: il2ra_site2_2erj_sap_15_mot_a171aa182591c97700389b7a6f87ba9a_0001_af2_000000046_0001_32_46_H_._HHH_b2_06187_af2_0001_0000300019_0000001_0_0001_af2pred_0001_af2p … (protein)
chain: SSSSSDEEEVREEVERLLEEAERIPDQEEALKLLQEAAELALEIGDPELIELVDEVLQRLSSSSS
B6: il2ra_site2_2erj_sap_20_mot_HHH_b1_07584_000000201_0001_42_55_H_._HHH_b1_02580_af2_0001_0000600009_0000001_0_0001 (protein)
chain: SSSSSDWLHRLYELANELMKAVARGDEEEAEELAEEIQKLAEERDSPNVEEIAKALLRLLSSSSS
B7: il2ra_site2_3nfp_sap_25_mot_HHH_b2_06150_000000217_0001_39_53_H_._HHH_b2_05014_af2_0001_0000600020_0000001_0_0001 (protein)
chain: SSSSDEREKYLEAALLLLREALEEGDEELAERHAEILLQAAEDANDEEVRREVEEILKELSSSSS
B8: il2ra_site1_2b5i_sap_9_mot_HHH_b1_06258_af2_000000112_0001_42_56_H_._HHH_b1_00682_af2_0001_0002200062_0000001_0_0001_af2pred_dldesign_0_af2pred (protein)
chain: SSSSSEAEVLLKEAEAALKAGDKEKLEEILKRLDELIAASEDPRKRRRLQAVRDCIADALSSSSS
B9: il2ra_site2_3nfp_normal_mot_HHH_b1_06797_000000164_0001_24_40_H_._HHH_b2_08062_0001_0000200006_0000001_0 (protein)
chain: SSSSSKAEEYLRAVVLVIELALEAGDHESARSALHAAEQLAKDLGDEELLERLEELAERVNSSSS
B10: il2ra_site1_1z92_sap_23_mot_HHH_b1_02395_af2_000000187_0001_1_21_H_._HHH_b2_07504_af2_0001_0000500009_0000001_0_0001_af2pred_0001_af2pred_1 (protein)
chain: SSSDRRLEKNAKLIVRAAVEAAGLSEEQKEELEEVARELVEKGFSFEEIFRILDKEALKLASSSS
B11: il2ra_site2_3nfp_sap_12_mot_HHH_b1_04084_000000061_0001_23_39_H_._HHH_b1_08671_af2_0001_0000100012_0000001_0_0001 (protein)
chain: SSSSDEEELERLREEIEKLIEEGDKLEVAELVMELSELAARLQDEEAVKFVIRVYEWLKGSSSSS
B12: il2ra_site1_1z92_sap_15_mot_3c291a2f2994a8e029b17f9ec7f22732_0001_000000183_0001_17_31_H_._42f8b9a235e54c912819b8ab3aebd5a2_0001_0001_0000300018_0000001_0_0001_ … (protein)
chain: DEEEAEELLREILKERGSEEILERLLEHAERAFGDPKEALKALISVALKLLGDPRLEEALQLVRK
B13: il2ra_site1_3nfp_sap_12_mot_HHH_b1_01231_af2_000000170_0001_1_16_H_._HHH_b2_04884_af2_0001_0000600017_0000001_0_0001 (protein)
chain: SSSSSDVEERVEELLEQAEELVKKGNWEEALKAAEEVFHLIARAGNPELDRLLREWLRRNSSSSS
B14: il2ra_site1_1z92_normal_mot_HHH_b1_01239_000000025_0001_23_39_H_._HHH_b1_01610_af2_0001_0000400030_0000001_0_af2pred_0001_1_af2pred_swapped (protein)
chain: SSSSSSDEELERIQQLFKEASRVSKEEARELLEEAEELAKELGNELERRDIEIMLEFLSSSSSSS
B15: il2ra_site2_2erj_normal_mot_HHH_b1_04462_000000080_0001_40_56_H_._HHH_b1_02157_af2_0001_0000200030_0000001_0 (protein)
chain: SSSSDREEEIVREIVEELGLSEEVQKLLEEHARIALERGASEELVEAFLRRSAEALAEALSSSSS
B16: il2ra_site2_2erj_normal_mot_HHH_b2_02252_af2_000000112_0001_23_39_H_._HHH_b2_02373_af2_0001_0000200006_0000001_0 (protein)
chain: SSSSSKEEAEELLEEAEKALEEGDEEKAERLLRRAAEIAFEEGDEELFSEIAEEAHKVARASSSS
B17: il2ra_site1_1z92_normal_mot_HHH_b1_03785_000000215_0001_1_20_H_._bef423f67012f639c2a89b71bdd22866_0001_0001_0000300012_0000001_0 (protein)
chain: SEEREEEAREILEEVLPPEAVEYYILLLKSASRSNNPRLERVVRRNIEAALGDPELARKVVELVK
B18: il2ra_site2_2erj_normal_mot_HHH_b2_04303_af2_000000294_0001_21_38_H_._HHH_b2_03312_0001_0000400028_0000001_0 (protein)
chain: SSSSSEEEKRLEELLERIEELIEEGDPEKAEELLSEAFELAYRNNDEEVAAILIELAHLVFSSSS
B19: il2ra_site2_3nfp_normal_mot_HHH_b2_05281_000000198_0001_39_56_H_._HHH_b1_04436_af2_0001_0000400043_0000001_0 (protein)
chain: SSSSDEIEELEKEAKELLEKGNPEEAREVLSKAAELAFELRDSEAFFKIAELAFKVLQLLESSSS
B20: il2ra_site1_3nfp_normal_mot_HHH_b1_01231_af2_000000170_0001_1_16_H_._HHH_b2_07449_af2_0001_0000200019_0000001_0_af2pred_0001_af2pred (protein)
chain: SSSSEERRRALELLLRALELALNGNPEEAEEVLREAEEIAEKGGNESLLKLIEAAKRATERSSSS
B21: il2ra_site1_3nfp_normal_mot_HHH_b1_00630_af2_000000193_0001_42_55_H_._be73ba4ac32714b816344d1b21815a46_0001_0001_0000200007_0000001_0_1_af2pred_0001_af2pred_1 (protein)
chain: DTAEELIAHAVEKGDKRAIKKIVELAERYLGDPEEAERLVIELLRRALNIPPEEAKELVEELLER
B22: il2ra_site2_3nfp_sap_23_mot_HHH_b1_00050_000000292_0001_22_38_H_._3932a6e8e66b0b352c148f6700bd03ae_0001_af2_0001_0001100015_0000001_0_0001_af2pred_0001_af2pred_ … (protein)
chain: SSSSDVEERIEELLELVEEAIKKGDPFRAFALLLEALELAERYNDEEAERKVEKLAKELASSSSS
B23: il2ra_site1_3nfp_sap_18_mot_HHH_b1_05070_af2_000000282_0001_43_57_H_._HHH_b1_07015_af2_0001_0001400042_0000001_0_0001 (protein)
chain: SSDEWFEELVRRVTKLAEEKNDEEVRELAEKALELWKEAAENQDMEAADEAIRIVARLQNRVKSS
B24: il2ra_site1_1z92_normal_mot_HHH_b2_04375_000000267_0001_42_56_H_._HHH_b2_08134_af2_0001_0000200026_0000001_0_af2pred_0001_af2pred (protein)
chain: SSSSDEEKEELEEFVEQLVKELGLDEEAEKRERESLERALEAGIDPEAIKKALERNARRTGSSSS

This is one part of the list. Where only a bound is given, the exact number is not on record here.

The test concerns the target il2ra, P01589. Put plainly: yeast display titration.
Consider B1, for which the “apparent Kd” value is “inactive: no binding seen”.
As for B2, the “apparent Kd” value is “inactive: no binding seen”.
Consider B3, for which the “apparent Kd” value is “inactive: no binding seen”.
For B4, the “apparent Kd” value is “inactive: no binding seen”.
Turning to B5, the “apparent Kd” value is “inactive: no binding seen”.
With B6 the entry was “inactive: no binding seen”; with B7, “inactive: no binding seen”; with B8, “inactive: no binding seen”.
The value for B9 was “inactive: no binding seen”; that for B10 was inactive: > 1040 nM; that for B11 was “inactive: no binding seen”.
For the molecule B12, the “apparent Kd” value is “inactive: no binding seen”.
The value for B13 was “inactive: no binding seen”; that for B14 was “inactive: no binding seen”; that for B15 was “inactive: no binding seen”.
With B16 the entry was “inactive: no binding seen”; with B17, “inactive: no binding seen”.
B18: the “apparent Kd” value is “inactive: no binding seen”.
The value for B19 was “inactive: no binding seen”.
In the case of B20, the “apparent Kd” value was “inactive: no binding seen”.
Regarding B21, the “apparent Kd” value was “inactive: no binding seen”.
With B22 the entry was “inactive: no binding seen”.
With B23 the entry was “inactive: no binding seen”; with B24, “inactive: no binding seen”.
